From the supplement of paper PMC12819154, “High-throughput peptide-centric local stability assay extends protein–ligand identification to membrane proteins, tissues and bacteria” (Nature Structural & Molecular Biology, 2025)
Some of the results follow. Most values lie at the level of the controls, where differences are scatter.

Sequences of proteins named here, by UniProt entry; tags and fusion partners are left off. A change or cut given only in a name is not applied to a line headed by its entry.
UniProt P0C0T5: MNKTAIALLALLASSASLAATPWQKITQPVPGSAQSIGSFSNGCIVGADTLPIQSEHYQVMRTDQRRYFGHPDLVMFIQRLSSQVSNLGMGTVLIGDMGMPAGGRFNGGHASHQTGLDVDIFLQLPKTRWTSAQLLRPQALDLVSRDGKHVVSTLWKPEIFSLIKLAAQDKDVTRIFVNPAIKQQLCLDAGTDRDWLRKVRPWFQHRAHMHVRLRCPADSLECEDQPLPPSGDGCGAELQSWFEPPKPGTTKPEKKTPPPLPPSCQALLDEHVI
UniProt P13518: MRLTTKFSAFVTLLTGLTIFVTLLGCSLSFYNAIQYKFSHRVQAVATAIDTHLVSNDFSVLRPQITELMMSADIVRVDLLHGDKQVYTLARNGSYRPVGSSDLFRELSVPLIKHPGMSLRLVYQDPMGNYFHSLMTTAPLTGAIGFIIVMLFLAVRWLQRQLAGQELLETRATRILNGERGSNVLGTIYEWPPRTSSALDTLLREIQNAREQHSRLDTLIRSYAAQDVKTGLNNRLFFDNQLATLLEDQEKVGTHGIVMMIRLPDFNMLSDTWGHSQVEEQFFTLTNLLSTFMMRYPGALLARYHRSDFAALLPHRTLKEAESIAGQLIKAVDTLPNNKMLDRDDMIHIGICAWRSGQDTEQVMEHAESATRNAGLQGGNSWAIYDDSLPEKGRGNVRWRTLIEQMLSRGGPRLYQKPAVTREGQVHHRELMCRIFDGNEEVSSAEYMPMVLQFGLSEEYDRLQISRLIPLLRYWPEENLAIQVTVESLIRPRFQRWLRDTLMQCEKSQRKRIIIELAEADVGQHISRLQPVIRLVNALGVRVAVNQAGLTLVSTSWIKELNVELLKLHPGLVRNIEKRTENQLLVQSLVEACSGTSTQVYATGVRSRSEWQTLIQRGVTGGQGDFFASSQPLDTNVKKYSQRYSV
UniProt P15043: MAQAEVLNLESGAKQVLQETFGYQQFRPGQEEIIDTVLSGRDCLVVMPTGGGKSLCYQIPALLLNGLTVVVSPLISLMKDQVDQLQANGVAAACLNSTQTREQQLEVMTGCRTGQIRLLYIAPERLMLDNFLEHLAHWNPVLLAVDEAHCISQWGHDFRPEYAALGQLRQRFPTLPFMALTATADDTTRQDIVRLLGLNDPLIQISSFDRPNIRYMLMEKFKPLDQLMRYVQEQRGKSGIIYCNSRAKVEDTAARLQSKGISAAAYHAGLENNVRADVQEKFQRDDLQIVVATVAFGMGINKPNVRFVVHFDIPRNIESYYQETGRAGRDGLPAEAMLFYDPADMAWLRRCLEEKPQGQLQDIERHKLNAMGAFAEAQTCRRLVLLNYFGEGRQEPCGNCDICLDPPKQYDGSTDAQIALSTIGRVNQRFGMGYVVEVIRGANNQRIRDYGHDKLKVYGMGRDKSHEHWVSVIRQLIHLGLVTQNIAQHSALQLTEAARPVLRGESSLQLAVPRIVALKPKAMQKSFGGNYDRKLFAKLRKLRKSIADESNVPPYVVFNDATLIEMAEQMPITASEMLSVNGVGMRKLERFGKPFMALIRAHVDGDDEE
UniProt P16433: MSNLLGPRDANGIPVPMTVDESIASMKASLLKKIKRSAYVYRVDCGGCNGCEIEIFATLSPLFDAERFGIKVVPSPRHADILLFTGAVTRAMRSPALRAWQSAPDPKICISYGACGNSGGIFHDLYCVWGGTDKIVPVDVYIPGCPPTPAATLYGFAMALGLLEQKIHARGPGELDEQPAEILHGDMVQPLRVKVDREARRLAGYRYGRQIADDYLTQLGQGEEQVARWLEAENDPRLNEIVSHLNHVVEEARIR
UniProt P17846: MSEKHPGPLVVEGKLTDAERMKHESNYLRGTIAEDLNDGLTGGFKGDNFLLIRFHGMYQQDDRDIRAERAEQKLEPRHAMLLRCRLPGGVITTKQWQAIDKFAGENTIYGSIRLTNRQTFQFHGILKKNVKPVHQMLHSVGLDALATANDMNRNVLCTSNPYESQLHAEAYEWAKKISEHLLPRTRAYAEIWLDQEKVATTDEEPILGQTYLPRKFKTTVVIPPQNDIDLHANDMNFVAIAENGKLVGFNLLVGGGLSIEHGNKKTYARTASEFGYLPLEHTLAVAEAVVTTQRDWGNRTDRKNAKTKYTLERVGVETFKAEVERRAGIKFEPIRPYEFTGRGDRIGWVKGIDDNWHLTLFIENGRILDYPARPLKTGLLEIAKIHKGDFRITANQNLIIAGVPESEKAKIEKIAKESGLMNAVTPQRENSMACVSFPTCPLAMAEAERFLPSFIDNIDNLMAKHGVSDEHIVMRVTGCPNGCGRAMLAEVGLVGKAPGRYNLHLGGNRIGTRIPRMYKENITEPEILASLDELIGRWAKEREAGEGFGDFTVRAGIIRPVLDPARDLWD
UniProt P13445, whole entry: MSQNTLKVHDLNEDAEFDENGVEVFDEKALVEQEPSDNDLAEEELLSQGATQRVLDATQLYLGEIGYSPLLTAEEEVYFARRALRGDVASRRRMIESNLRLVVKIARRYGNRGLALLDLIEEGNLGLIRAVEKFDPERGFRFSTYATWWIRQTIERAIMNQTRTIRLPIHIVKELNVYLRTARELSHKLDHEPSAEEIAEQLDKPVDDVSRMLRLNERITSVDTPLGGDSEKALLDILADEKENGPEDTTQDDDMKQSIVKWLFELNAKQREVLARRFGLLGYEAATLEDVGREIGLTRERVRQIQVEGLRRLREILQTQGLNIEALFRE
UniProt P15288: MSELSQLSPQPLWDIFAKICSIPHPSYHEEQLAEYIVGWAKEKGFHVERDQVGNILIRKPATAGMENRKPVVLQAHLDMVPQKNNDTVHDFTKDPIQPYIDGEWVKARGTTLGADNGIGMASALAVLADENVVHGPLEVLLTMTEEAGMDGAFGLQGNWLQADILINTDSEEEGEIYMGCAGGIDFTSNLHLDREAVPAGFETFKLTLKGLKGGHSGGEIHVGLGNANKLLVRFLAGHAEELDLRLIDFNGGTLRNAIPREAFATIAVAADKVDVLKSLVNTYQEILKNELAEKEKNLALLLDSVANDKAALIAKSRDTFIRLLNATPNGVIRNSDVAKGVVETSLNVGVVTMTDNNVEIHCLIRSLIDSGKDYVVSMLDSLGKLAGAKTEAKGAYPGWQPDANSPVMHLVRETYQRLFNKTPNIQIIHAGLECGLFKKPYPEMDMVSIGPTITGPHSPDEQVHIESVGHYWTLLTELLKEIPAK
UniProt P0CF88: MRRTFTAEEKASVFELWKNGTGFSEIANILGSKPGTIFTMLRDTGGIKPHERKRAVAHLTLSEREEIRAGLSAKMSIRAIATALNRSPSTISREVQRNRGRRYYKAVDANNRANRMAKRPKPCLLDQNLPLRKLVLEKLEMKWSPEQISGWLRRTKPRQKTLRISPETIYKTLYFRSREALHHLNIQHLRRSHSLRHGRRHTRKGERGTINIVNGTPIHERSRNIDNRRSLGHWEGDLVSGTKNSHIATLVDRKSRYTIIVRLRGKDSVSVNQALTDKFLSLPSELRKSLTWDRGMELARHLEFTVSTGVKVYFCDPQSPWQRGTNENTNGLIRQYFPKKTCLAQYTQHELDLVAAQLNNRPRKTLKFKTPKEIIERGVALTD
UniProt P19930: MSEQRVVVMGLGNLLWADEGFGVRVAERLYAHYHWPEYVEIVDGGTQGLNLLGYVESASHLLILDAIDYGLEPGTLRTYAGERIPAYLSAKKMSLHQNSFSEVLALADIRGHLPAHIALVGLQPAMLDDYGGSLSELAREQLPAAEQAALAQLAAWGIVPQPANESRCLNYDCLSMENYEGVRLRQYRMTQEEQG
UniProt P11553: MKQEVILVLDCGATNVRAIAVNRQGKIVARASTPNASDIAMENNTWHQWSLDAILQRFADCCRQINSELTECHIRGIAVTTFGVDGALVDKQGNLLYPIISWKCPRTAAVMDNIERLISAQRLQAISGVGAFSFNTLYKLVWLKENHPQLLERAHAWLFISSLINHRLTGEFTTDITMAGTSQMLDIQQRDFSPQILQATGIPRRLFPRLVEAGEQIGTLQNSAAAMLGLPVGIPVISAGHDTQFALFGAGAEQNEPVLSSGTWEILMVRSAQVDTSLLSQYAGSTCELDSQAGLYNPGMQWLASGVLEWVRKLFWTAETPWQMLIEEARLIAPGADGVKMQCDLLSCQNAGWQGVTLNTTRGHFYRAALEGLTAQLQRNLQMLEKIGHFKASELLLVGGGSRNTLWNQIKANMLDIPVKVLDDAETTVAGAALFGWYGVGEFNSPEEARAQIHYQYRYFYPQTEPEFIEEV
UniProt P23830: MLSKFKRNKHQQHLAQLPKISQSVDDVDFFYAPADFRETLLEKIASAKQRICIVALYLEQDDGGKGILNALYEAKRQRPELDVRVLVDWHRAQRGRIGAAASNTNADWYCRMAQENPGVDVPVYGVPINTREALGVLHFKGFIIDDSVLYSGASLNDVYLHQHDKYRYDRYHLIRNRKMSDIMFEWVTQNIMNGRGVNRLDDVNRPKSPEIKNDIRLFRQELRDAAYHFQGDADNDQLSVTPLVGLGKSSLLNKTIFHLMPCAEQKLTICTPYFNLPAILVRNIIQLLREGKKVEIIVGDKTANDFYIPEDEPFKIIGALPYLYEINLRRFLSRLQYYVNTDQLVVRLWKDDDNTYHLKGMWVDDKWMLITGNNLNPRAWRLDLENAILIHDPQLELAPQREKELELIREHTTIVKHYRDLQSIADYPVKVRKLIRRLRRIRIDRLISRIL

Each target was assayed with CC1(C)S[C@@H]2[C@H](NC(=O)[C@H](N)c3ccccc3)C(=O)N2[C@H]1C(=O)O [ampicillin] (assay: log2 fold change of tryptic peptide abundance, ligand vs vehicle (limited proteolysis) (log2 ratio); higher = more trypsin-susceptible (destabilized)). Conditions: ligand concentration: 10 uM; sample: E. coli crude lysate.

Target	log2 fold change
UniProt P0C0T5 (peptide sequence: WTSAQLLRPQALDLVSR, peptide start residue: 130)	0.188
UniProt P13518 (peptide sequence: SGQDTEQVMEHAESATR, peptide start residue: 356)	0.28
UniProt P15043 (peptide sequence: KLERFGK, peptide start residue: 587)	-1.14
UniProt P16433 (peptide sequence: WLEAENDPR, peptide start residue: 229)	-0.291
UniProt P17846 (peptide sequence: ILDYPARPLKTGLLEIAK, peptide start residue: 367)	-0.635
UniProt P13445 (peptide sequence: RFGLLGYEAATLEDVGR, peptide start residue: 277)	-0.204
UniProt P15288 (peptide sequence: EKGFHVER, peptide start residue: 42)	-0.683
UniProt P0CF88 (peptide sequence: GTINIVNGTPIHER, peptide start residue: 208)	0.337
UniProt P19930 (peptide sequence: IPAYLSAK, peptide start residue: 84)	-0.0149
UniProt P11553 (peptide sequence: ASELLLVGGGSR, peptide start residue: 392)	-0.368
UniProt P23830 (peptide sequence: VLVDWHR, peptide start residue: 85)	0.336

2 records picked at random from the list so far, as already listed:
Target	log2 fold change
UniProt P0CF88 (peptide sequence: GTINIVNGTPIHER, peptide start residue: 208)	0.337
UniProt P13518 (peptide sequence: SGQDTEQVMEHAESATR, peptide start residue: 356)	0.28
